Where two headings read alike, the source gives them in different places. Results are given in words; binding and its absence hold for the method and conditions named. Binding seen in cells or lysates may run through a third protein. Some results given as binding are weak or reduced against the parent protein; the word gives no strength. Sequences can lack the tags named with a protein.
Tests used:
CarD-FLAG (M. smegmatis) [1] = target: T1, CarD-FLAG (M. smegmatis) (UniProt A0R561); assay: co-IP
T1 sequence: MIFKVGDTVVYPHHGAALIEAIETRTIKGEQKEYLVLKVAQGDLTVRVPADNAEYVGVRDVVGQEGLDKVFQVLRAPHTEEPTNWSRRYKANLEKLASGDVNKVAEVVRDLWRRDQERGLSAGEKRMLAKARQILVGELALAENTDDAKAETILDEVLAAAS

The chains behind the UniProt entries cited, without tags or fusion partners. Where a name states a change or a piece, a line headed by the entry shows the natural chain unless it says otherwise.
UniProt A0QSL8: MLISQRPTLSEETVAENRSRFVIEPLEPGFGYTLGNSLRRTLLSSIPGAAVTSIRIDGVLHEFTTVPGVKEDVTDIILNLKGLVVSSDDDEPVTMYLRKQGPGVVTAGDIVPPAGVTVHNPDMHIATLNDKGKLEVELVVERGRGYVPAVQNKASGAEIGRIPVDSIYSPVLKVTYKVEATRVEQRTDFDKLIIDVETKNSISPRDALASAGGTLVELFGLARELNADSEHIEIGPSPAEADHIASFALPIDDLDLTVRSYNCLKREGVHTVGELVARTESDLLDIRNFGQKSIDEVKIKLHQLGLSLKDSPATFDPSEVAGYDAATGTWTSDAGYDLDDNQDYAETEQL

CarD-FLAG (M. smegmatis) [2] = target: T1, CarD-FLAG (M. smegmatis); assay: co-IP; remark: listed apart in the source

In the case of “RNA polymerase (RNAP) (from UniProt A0QSL8 1-350; P60281 1-1169; A0QS66 1-1317; A0QWT1 1-107) (complex)”, the binding (CarD-FLAG (M. smegmatis) [1]) is reported as “binds” and the binding (CarD-FLAG (M. smegmatis) [2]) is reported as “binds”.
